Paper doi:10.1101/2022.09.15.508097
Results are given in words; binding and its absence hold for the method and conditions named. Some results given as binding are weak or reduced against the parent protein; the word gives no strength. For some assays here: Where a sequence is shown, tags or fusion partners need not be part of it.

Chains of the proteins cited; added tags and fusions are not shown. Residues count along the entry.
TetR-EYFP-ZNF518A^971–1483 (Q6AHZ1, residues 971-1483): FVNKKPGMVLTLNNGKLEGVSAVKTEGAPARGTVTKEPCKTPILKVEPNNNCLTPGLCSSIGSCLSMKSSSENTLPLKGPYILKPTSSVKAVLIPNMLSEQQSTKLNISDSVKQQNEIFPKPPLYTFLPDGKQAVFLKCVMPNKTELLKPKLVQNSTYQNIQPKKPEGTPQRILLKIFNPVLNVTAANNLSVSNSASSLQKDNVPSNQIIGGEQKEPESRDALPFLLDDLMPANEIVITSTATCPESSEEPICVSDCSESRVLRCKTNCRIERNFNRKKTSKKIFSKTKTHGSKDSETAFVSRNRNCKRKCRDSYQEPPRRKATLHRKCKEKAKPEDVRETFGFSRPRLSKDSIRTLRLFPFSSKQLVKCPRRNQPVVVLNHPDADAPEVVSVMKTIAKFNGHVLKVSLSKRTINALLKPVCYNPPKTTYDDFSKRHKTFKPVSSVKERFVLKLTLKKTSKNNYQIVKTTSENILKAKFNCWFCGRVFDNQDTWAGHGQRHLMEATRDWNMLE
TetR-EYFP-ZNF518A^971–1321 (Q6AHZ1, residues 971-1321): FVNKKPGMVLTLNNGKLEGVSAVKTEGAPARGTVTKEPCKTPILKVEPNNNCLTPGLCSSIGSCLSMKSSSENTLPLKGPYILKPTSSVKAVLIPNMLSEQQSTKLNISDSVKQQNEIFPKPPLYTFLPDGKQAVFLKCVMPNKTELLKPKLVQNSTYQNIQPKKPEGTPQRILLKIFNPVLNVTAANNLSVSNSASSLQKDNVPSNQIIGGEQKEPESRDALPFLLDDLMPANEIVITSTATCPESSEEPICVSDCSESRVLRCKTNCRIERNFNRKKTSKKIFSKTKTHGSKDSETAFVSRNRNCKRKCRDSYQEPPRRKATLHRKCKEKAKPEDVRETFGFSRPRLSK
UniProt Q96KQ7: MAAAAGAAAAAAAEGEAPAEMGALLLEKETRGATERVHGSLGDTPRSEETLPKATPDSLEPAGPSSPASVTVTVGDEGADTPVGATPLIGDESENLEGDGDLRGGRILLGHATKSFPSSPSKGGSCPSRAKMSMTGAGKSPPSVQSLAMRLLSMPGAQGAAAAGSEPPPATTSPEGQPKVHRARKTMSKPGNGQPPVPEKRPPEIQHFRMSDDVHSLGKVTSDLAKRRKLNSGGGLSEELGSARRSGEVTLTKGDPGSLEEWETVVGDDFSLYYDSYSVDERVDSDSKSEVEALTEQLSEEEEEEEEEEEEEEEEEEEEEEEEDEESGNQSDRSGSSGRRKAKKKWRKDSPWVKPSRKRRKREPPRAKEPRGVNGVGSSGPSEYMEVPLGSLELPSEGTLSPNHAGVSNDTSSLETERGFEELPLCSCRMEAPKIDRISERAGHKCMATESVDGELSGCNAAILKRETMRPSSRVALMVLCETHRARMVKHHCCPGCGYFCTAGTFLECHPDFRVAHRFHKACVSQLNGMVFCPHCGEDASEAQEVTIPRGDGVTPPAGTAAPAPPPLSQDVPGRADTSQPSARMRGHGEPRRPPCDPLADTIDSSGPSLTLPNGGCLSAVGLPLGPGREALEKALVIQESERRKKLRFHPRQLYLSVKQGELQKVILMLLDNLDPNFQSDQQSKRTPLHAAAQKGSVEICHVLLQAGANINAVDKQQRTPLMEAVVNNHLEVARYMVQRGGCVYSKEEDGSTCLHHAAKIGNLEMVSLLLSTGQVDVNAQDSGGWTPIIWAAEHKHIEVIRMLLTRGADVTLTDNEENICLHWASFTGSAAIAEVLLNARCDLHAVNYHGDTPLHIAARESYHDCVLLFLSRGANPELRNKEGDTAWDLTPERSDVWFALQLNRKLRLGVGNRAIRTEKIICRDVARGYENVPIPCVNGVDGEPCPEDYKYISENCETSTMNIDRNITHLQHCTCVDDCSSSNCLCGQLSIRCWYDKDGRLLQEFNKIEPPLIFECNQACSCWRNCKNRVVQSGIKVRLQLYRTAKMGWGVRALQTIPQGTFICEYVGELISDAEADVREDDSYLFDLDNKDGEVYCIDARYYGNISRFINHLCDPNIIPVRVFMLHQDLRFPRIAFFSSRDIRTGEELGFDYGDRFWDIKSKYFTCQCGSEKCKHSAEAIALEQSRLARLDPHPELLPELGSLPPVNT

Legend:
[1] = biological target: T1, GFP-ZNF518B^344–987 (human) (UniProt Q9C0D4); experiment: recruitment to centromeres by fluorescence microscopy
T1 sequence: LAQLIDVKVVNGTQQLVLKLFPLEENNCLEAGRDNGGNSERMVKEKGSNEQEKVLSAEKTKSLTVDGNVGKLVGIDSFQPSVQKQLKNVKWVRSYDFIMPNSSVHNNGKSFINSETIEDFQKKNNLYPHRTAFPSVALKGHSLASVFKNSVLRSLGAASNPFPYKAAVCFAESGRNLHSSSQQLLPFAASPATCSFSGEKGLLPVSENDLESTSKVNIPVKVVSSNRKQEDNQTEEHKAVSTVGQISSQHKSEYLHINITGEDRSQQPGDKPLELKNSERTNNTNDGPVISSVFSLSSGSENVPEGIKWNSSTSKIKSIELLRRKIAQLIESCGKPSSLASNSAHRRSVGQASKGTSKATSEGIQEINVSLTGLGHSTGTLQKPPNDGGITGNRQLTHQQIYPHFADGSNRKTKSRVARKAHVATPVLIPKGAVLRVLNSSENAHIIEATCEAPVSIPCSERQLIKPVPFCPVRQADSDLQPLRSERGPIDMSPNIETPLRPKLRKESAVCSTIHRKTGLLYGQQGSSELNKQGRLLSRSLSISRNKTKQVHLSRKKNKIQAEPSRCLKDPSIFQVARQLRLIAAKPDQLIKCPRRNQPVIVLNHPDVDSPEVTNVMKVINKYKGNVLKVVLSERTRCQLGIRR

GFP-ZNF518B (WT) (human) = biological target: T2, GFP-ZNF518B (WT) (human) (UniProt Q9C0D4); experiment: as above
T2 sequence: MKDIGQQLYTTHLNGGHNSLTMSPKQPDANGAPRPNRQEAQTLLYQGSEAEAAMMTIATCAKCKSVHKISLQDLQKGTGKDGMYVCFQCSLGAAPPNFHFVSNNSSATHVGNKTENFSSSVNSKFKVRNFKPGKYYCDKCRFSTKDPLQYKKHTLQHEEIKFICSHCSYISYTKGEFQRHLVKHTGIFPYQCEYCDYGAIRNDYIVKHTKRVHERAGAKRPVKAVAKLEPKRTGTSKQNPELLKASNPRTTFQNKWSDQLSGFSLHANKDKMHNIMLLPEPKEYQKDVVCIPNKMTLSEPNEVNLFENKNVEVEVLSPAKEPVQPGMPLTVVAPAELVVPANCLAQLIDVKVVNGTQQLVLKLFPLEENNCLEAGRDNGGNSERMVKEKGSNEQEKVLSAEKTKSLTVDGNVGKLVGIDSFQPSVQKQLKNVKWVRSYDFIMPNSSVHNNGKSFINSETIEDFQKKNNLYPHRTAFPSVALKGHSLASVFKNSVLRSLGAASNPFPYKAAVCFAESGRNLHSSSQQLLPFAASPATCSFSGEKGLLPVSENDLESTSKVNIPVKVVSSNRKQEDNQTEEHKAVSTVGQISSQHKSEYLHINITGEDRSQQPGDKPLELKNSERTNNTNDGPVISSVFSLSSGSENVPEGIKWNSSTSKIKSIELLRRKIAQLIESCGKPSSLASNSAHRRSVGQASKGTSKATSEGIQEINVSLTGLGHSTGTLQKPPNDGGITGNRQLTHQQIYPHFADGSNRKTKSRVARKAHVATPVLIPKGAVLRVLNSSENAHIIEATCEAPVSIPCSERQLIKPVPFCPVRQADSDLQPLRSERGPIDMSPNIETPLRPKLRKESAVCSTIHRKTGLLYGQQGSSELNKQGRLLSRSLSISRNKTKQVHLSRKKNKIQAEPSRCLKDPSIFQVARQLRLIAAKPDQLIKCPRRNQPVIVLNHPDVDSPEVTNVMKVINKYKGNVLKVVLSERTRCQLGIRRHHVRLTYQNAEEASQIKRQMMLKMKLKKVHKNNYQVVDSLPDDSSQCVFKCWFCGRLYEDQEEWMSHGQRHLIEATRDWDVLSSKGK

[2] = biological target: T3, GFP-ZNF518B^344–1074 (human) (UniProt Q9C0D4); experiment: as above
T3 sequence: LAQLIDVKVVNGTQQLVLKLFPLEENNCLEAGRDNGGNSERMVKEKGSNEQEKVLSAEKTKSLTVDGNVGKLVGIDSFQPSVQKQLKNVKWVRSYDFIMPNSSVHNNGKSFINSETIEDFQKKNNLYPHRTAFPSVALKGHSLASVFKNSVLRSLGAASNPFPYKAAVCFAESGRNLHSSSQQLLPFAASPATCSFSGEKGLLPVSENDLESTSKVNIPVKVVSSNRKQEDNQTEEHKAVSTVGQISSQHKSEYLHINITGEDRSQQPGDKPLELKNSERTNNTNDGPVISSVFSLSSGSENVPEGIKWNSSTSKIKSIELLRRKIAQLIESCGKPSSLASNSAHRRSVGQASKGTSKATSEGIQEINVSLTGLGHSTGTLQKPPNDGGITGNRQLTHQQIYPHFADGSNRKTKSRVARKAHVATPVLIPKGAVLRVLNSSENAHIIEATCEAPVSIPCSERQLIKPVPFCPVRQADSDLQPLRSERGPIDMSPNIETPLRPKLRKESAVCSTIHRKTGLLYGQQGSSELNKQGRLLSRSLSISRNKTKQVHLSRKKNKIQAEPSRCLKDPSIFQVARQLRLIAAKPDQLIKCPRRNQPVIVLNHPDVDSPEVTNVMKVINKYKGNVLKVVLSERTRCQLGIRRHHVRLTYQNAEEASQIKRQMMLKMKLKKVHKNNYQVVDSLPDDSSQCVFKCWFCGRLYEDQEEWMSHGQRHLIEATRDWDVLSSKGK

[3] = biological target: TetR-EYFP-ZNF518A^971–1483 (human) (UniProt Q6AHZ1); experiment: fluorescence microscopy-based interaction-trap
[4] = biological target: TetR-EYFP-ZNF518A^971–1321 (human) (UniProt Q6AHZ1); experiment: fluorescence microscopy-based interaction-trap

Substance: Halo-G9a (from UniProt Q96KQ7 1-1210) (enzyme)
- binding [1]: no binding
- binding (GFP-ZNF518B (WT) (human)): binds
- binding [2]: binds
- binding [3]: binds
- binding [4]: binds
